Reference: PubChem BioAssay AID504764 (Drosophila RNAi Screening Center, 2011)

Assay: 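Genes whose knock-down alters Notch-dependent transcription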 (primary screen)
Cell system: Drosophila Kc167 cells
Reagent: long dsRNA against Drosophila genes
Timing: about 5 days (4 days dsRNA, then 24 h after transfection)
Treatment: transfection of constitutively active membrane-tethered Notch lacking the extracellular domain, read 24 h later
Measured: 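Firefly luciferase from an E(spl)m3 reporter with active Notch, plus control-promoter and uninduced reporter wells for normalisation; unnormalised counts, duplicate wells a and b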
Direction: induced reporter light, run 1, well a and induced reporter light, run 1, well b: higher = more light from the Notch target reporter with active Notch; control promoter light, run 1, well a and control promoter light, run 1, well b: higher = more light from the viral control promoter (cell number, transfection, viability); uninduced reporter light, run 1, well a: higher = more light from the Notch target reporter without active Notch
Hit rule: 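Hit if the duplicate-averaged log2 ratio of induced to control-promoter light gives a plate-wise z beyond ±2, or induced to uninduced beyond ±1.8; weak-control or discordant-duplicate wells dropped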
Meaning of the calls: active = modifier hit (raised or lowered Notch signal); inactive = not a hit
In all, the deposit lists about 22,000 reagents; this is a random part of those that have a named target and a result. Over the whole deposit, 403 (1.9%) are marked active. 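Unnormalised raw counts per well; ratio z-scores behind the hit calls and whether each hit raises or lowers signal are not deposited.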 The record does not give: the amount of reagent.

| gene | amplicon | induced reporter light, run 1, well a | induced reporter light, run 1, well b | control promoter light, run 1, well a | control promoter light, run 1, well b | uninduced reporter light, run 1, well a | call |
| --- | --- | --- | --- | --- | --- | --- | --- |
| CG1463 (GeneID 32211) | DRSC19603 | 2.23e5 | 1.67e5 | 1.97e5 | 2.04e5 | 14105 | inactive |
| CG1894 (GeneID 43378) | DRSC15396 | 1.40e5 | 1.15e5 | 1.70e5 | 1.78e5 | 9450 | inactive |
| CG5167 (GeneID 41521) | DRSC15728 | 54865 | 51085 | 41595 | 37315 | 2578 | inactive |
| Tap42 (GeneID 326166) | DRSC02967 | 1.46e5 | 1.54e5 | 1.72e5 | 2.03e5 | 12390 | inactive |
| bai (GeneID 42996) | DRSC14388 | 1.76e5 | 1.59e5 | 2.17e5 | 2.29e5 | 16540 | inactive |
| CG13540 (GeneID 37686) | DRSC04182 | 2.08e5 | 2.26e5 | 1.99e5 | 2.09e5 | 15965 | inactive |
| CG5773 (GeneID 37053) | DRSC06955 | 52385 | 62945 | 73410 | 65830 | 4640 | inactive |
| Rsph3 (GeneID 38751) | DRSC09696 | 93385 | 1.11e5 | 72575 | 39925 | 10815 | inactive |
| Rsph3 (GeneID 38751) | DRSC10211 | 2.70e5 | 2.89e5 | 3.15e5 | 3.20e5 | 20500 | inactive |
| Tfb4 (GeneID 33294) | DRSC00675 | 1.17e5 | 1.01e5 | 1.08e5 | 69830 | 9335 | inactive |
| frac (GeneID 38850) | DRSC10867 | 1.52e5 | 1.04e5 | 92695 | 51880 | 11085 | inactive |
| Nost (GeneID 8673992) | DRSC18037 | 1.23e5 | 1.24e5 | 1.71e5 | 1.69e5 | 10465 | inactive |
| Nost (GeneID 8673992) | DRSC18338 | 1.25e5 | 1.38e5 | 2.07e5 | 1.65e5 | 9970 | inactive |
| CG3376 (GeneID 37884) | DRSC04362 | 1.03e5 | 1.25e5 | 65735 | 74755 | 6570 | inactive |
| CG3630 (GeneID 31189) | DRSC18499 | 1.60e5 | 1.47e5 | 2.42e5 | 2.64e5 | 13632 | inactive |
| CG33655 (GeneID 8674081) | DRSC03858 | 86150 | 70275 | 80410 | 93165 | 7035 | inactive |
| CG13218 (GeneID 36177) | DRSC06340 | 87625 | 76995 | 1.01e5 | 1.12e5 | 8975 | inactive |
| Rubicon (GeneID 31803) | DRSC17889 | 1.21e5 | 1.17e5 | 2.47e5 | 1.65e5 | 8935 | inactive |
| CG31528 (GeneID 318785) | DRSC12003 | 1.90e5 | 2.48e5 | 3.29e5 | 2.66e5 | 18120 | inactive |
| Cpr97Eb (GeneID 43259) | DRSC15123 | 1.32e5 | 1.24e5 | 1.97e5 | 1.96e5 | 12845 | inactive |
| MnM (GeneID 38384) | DRSC08423 | 1.34e5 | 1.54e5 | 2.55e5 | 1.71e5 | 9865 | inactive |
| Cyp313a1 (GeneID 41759) | DRSC16624 | 2.41e5 | 2.45e5 | 1.90e5 | 2.11e5 | 17135 | inactive |
| Serinc (GeneID 39827) | DRSC11296 | 1.15e5 | 1.16e5 | 63810 | 75190 | 7620 | inactive |
| EndoU (GeneID 41931) | DRSC15472 | 3.13e5 | 2.90e5 | 4.37e5 | 4.61e5 | 21125 | inactive |
| wls (GeneID 39259) | DRSC10605 | 1.72e5 | 2.28e5 | 1.41e5 | 85840 | 15760 | inactive |
| boca (GeneID 48986) | DRSC06408 | 1.63e5 | 1.22e5 | 2.10e5 | 1.79e5 | 12830 | inactive |
| CG14857 (GeneID 41791) | DRSC14981 | 2.44e5 | 2.09e5 | 2.16e5 | 2.32e5 | 15510 | inactive |
| CG9662 (GeneID 33554) | DRSC00723 | 1.59e5 | 1.88e5 | 1.74e5 | 1.72e5 | 11988 | inactive |
| yellow-f (GeneID 41595) | DRSC15348 | 3.21e5 | 3.16e5 | 2.63e5 | 2.93e5 | 24250 | inactive |
| CG13229 (GeneID 36168) | DRSC06349 | 64275 | 1.13e5 | 1.12e5 | 1.28e5 | 11140 | inactive |
| CG13670 (GeneID 38938) | DRSC10029 | 2.75e5 | 2.64e5 | 2.37e5 | 2.42e5 | 6905 | inactive |
| Tasp1 (GeneID 39757) | DRSC10495 | 1.10e5 | 1.18e5 | 78980 | 1.01e5 | 10350 | inactive |
| CG4927 (GeneID 36852) | DRSC06903 | 65465 | 78470 | 78525 | 84120 | 6885 | inactive |
| snf (GeneID 31442) | DRSC18835 | 1.69e5 | 1.45e5 | 1.54e5 | 1.60e5 | 11965 | inactive |
| Caf1-105 (GeneID 36107) | DRSC06209 | 1.27e5 | 1.01e5 | 1.45e5 | 1.34e5 | 11885 | inactive |
| CG8960 (GeneID 38280) | DRSC08612 | 51440 | 47950 | 69870 | 68520 | 4020 | inactive |
| CG33012 (GeneID 36342) | DRSC06287 | 1.02e5 | 87935 | 1.41e5 | 1.27e5 | 8840 | inactive |
| CG33012 (GeneID 36342) | DRSC06288 | 86470 | 93435 | 1.08e5 | 1.20e5 | 7825 | inactive |
| CG18568 (GeneID 36549) | DRSC06768 | 1.34e5 | 1.29e5 | 1.37e5 | 1.36e5 | 12638 | inactive |
| CG3337 (GeneID 42519) | DRSC15478 | 1.70e5 | 1.73e5 | 3.27e5 | 3.23e5 | 10115 | inactive |
| Khc-73 (GeneID 36718) | DRSC07449 | 1.15e5 | 99150 | 1.98e5 | 1.93e5 | 9532 | inactive |
| elm (GeneID 40695) | DRSC12309 | 1.24e5 | 1.15e5 | 83910 | 76945 | 7805 | inactive |
| aralar1 (GeneID 43616) | DRSC13987 | 55035 | 91370 | 1.08e5 | 1.22e5 | 9620 | active |
| aralar1 (GeneID 43616) | DRSC16901 | 2.01e5 | 1.94e5 | 2.07e5 | 2.55e5 | 13095 | inactive |
| Ugt35C1 (GeneID 53507) | DRSC16080 | 14525 | 11720 | 17240 | 14910 | 725 | inactive |
| kra (GeneID 40680) | DRSC12320 | 41610 | 38700 | 31735 | 29325 | 3695 | inactive |
| CG5235 (GeneID 39758) | DRSC10494 | 1.58e5 | 1.22e5 | 1.63e5 | 1.51e5 | 7305 | inactive |
| Sec3 (GeneID 39940) | DRSC10384 | 1.38e5 | 1.26e5 | 89955 | 92695 | 10350 | inactive |
| Lpt (GeneID 37795) | DRSC04291 | 1.78e5 | 1.68e5 | 1.64e5 | 1.51e5 | 10560 | inactive |
| Lpt (GeneID 37795) | DRSC04515 | 2.00e5 | 2.47e5 | 1.69e5 | 1.71e5 | 13015 | active |
